# Data reported in PubChem BioAssay (EPA / NIEHS).
# Amino acid sequences for entries named in this document (tags omitted). A change or cut given only in a name is not applied to a line headed by its entry.
# UniProt P41143, whole entry, looked up: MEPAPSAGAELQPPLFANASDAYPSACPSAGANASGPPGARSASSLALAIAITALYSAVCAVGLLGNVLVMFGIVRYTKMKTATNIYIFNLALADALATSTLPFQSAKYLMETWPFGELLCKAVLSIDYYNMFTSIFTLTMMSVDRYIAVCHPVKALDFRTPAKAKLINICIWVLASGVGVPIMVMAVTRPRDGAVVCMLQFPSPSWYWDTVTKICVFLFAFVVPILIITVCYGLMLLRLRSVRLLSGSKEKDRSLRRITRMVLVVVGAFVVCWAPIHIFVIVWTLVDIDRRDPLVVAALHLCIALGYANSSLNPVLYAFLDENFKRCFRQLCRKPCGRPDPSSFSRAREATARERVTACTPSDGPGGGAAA
# UniProt P22909, whole entry, looked up: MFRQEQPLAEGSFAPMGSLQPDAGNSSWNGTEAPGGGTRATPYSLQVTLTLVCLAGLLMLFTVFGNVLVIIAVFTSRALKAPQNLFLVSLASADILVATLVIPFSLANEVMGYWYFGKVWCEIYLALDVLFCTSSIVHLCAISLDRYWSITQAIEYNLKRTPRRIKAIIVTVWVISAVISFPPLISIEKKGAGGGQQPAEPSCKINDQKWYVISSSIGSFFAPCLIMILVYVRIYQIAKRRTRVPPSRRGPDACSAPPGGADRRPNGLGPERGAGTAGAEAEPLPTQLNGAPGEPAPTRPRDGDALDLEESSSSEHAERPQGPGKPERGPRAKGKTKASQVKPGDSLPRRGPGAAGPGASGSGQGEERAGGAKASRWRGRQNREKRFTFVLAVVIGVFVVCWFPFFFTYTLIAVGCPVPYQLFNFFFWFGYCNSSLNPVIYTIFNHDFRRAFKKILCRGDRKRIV
# UniProt P25445, whole entry, looked up: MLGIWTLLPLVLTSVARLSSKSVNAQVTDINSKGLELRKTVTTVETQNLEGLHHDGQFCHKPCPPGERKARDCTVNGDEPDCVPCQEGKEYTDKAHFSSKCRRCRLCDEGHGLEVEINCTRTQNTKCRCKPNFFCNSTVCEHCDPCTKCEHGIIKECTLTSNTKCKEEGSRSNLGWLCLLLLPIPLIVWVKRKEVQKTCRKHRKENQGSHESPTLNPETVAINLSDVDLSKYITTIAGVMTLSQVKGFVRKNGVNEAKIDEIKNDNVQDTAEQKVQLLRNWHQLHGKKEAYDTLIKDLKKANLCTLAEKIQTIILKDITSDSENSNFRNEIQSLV
# UniProt P04637, whole entry, looked up: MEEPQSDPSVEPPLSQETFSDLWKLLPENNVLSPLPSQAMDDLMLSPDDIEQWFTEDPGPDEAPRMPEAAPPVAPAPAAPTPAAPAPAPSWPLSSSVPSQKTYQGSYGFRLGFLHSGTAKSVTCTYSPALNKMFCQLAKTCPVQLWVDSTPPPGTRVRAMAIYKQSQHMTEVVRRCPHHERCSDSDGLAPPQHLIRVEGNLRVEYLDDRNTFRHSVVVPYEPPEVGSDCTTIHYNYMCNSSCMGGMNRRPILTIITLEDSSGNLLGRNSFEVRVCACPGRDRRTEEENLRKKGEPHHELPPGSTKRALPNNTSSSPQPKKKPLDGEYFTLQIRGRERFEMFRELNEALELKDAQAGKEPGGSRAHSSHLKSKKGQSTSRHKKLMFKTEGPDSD
# UniProt P08684, whole entry, looked up: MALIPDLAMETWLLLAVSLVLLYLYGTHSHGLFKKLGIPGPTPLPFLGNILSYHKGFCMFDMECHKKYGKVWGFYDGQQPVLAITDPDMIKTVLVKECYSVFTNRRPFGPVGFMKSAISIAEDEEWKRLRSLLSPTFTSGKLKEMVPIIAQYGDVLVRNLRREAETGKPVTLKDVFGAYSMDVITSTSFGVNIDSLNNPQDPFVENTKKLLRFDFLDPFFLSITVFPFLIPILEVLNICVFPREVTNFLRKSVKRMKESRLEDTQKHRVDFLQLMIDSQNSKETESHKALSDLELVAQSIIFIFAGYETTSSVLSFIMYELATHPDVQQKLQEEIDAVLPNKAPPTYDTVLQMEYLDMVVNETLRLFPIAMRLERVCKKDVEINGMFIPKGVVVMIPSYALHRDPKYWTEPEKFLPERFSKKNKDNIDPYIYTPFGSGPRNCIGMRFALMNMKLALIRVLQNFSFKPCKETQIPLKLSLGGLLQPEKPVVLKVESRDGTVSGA
# UniProt P60484: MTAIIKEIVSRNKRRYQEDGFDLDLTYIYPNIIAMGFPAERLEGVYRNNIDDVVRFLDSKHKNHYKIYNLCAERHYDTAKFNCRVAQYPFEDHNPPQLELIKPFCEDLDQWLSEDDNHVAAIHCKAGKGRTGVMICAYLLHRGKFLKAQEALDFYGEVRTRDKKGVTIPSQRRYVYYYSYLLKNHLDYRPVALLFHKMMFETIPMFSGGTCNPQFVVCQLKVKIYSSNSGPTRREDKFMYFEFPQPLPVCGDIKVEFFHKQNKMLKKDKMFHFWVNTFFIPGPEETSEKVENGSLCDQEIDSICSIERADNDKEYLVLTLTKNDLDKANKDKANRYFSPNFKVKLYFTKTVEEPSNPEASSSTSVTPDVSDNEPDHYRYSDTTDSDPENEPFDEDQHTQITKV
# The list shows a part of the results, in another mix than the full data. Records with an inconclusive call do not appear. Some compounds were tested as several samples or in several runs, with calls that do not always agree. Active and inactive are the calls of the source. The calls were made as follows, unless noted: active = hit-call score of the fitted dose curve at least 0.9, where 1 is the maximum; inactive = score below 0.9.
# How the values were obtained:
# [1] = read-out: Macrophage colony-stimulating factor (MCSF), CSF1 (gene 1435); assay: BSK_CASM3C_MCSF: BioMAP Diversity Plus: CASM3C Assay for Macrophage colony-stimulating factor (MCSF) Biomarker Activity (AID 2283044); details: actives raise or lower the signal; primary human coronary artery smooth muscle cells;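 also: M-CSF protein amount quantified by ELISA after 24 h exposure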
# [2] = BSK_CASM3C_Proliferation: Cell Proliferation Assessment in the BioMAP Diversity Plus: CASM3C Assay (AID 2283047); details: primary human coronary artery smooth muscle cells;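 also: sulforhodamine B total protein stain as relative cell number at 560 nm; sub-confluent cells exposed 48 h before staining; fitted both ways against DMSO so gain or loss of cell number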
# [3] = read-out: cysteine-aspartic acid protease (CASP8), CASP8 (gene 841); assay: LTEA_HepaRG_CASP8: Life Technologies and Expression Analysis (LTEA) Assay for cysteine-aspartic acid protease (CASP8) using HepaRG (AID 2283480); details: actives raise or lower the signal; mRNA level, 48 h
# In short: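 Differentiated human HepaRG cells, plated 48 h then switched to serum-free induction medium, were exposed in duplicate for 48 h to 8 half-log concentrations up to 100 uM in 0.5% DMSO. CASP8 mRNA was quantified by qRT-PCR, normalized to ACTB/GAPDH/POLR2A.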
# [4] = read-out: matrix metalloproteinase-10 (MMP10), MMP10 (gene 4319); assay: LTEA_HepaRG_MMP10: Life Technologies and Expression Analysis (LTEA) Assay for matrix metalloproteinase-10 (MMP10) using HepaRG (AID 2283517); details: actives raise or lower the signal; mRNA level, 48 h
# In short: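 HepaRG, collagen I, ~100,000 cells/well; serum-free induction medium; 48 h exposure, duplicate, 8-pt half-log to 100 uM, 0.5% DMSO. Readout: TaqMan qRT-PCR, normalized to ACTB/GAPDH/POLR2A; bidirectional fit vs DMSO.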
# [5] = read-out: Human Leukocyte Antigen - DR isotype (HLADR), HLA-DRA (gene 3122); assay: BSK_BE3C_HLADR: BioMAP Diversity Plus: BE3C Assay for Human Leukocyte Antigen - DR isotype (HLADR) Biomarker Activity (AID 2283032); details: actives raise or lower the signal; primary human bronchial epithelial cells
# In short: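 Signal came from an ELISA for HLA-DR in human bronchial epithelial primary cells harvested 24 h after treatment; gain- and loss-of-signal fitting used DMSO controls as reference.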
# [6] = read-out: Monokine induced gamma interferon (MIG), CXCL9 (gene 4283); assay: BSK_BE3C_MIG: BioMAP Diversity Plus: BE3C Assay for Monokine induced gamma interferon (MIG) Biomarker Activity (AID 2283035); details: actives raise or lower the signal; primary human bronchial epithelial cells
# In short: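 ELISA read-out of MIG in human lung bronchial epithelial primary cultures, 24 h post-dosing. Bidirectional curve fit vs DMSO baseline.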
# [7] = biological target: human Opioid Receptor Delta 1 (Opiate D1), OPRD1 (gene 4985) (UniProt P41143); assay: NVS_GPCR_hOpiate_D1: NovaScreen (NVS) G Protein-Coupled Receptor Assay for human Opioid Receptor Delta 1 (Opiate D1) (AID 2283280; active = hit-call score of the fitted dose curve at least 0.9, where 1 is the maximum)
# In short: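 Radioligand displacement on membranes from CHO cells expressing the receptor, read by filter scintillation counting 1 h after dosing. Duplicate single-point screen at 25 uM, then concentration series for actives; loss of signal versus DMSO.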
# [8] = biological target: rat Adrenergic Receptor, Alpha 2 (Adra2), Non-selective Binding, Adra2a (gene 25083) (UniProt P22909); assay: NVS_GPCR_rAdra2_NonSelective: NovaScreen (NVS) G Protein-Coupled Receptor Assay for rat Adrenergic Receptor, Alpha 2 (Adra2), Non-selective Binding (AID 2283299; active = hit-call score of the fitted dose curve at least 0.9, where 1 is the maximum)
# In short: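 Rat cortical membranes, radioligand competitive displacement read by filter-based scintillation counting 1.25 hours after dosing. Primary screen in duplicate at 25 uM; actives followed up in concentration series.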
# [9] = test system: guinea pig Dopamine Transporter (DAT), gene 100714898; assay: NVS_TR_gDAT: NovaScreen (NVS) Transporter Assay for guinea pig Dopamine Transporter (DAT) (AID 2283369; active = hit-call score of the fitted dose curve at least 0.9, where 1 is the maximum;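 also: active compounds lower bound radioligand signal relative to DMSO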)
# In short: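 Primary pass: duplicate wells at 25 uM, threshold e.g. 30% inhibition. Follow-up: singleton concentration-response, highest 50 uM. Radioligand binding on guinea pig striatal membranes, 2 h, filtration scintillation detection.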
# [10] = read-out: Tumor necrosis factor receptor superfamily member 6 (Homo sapiens) (UniProt P25445); assay: LTEA_HepaRG_FAS: Life Technologies and Expression Analysis (LTEA) Assay for Fas cell surface death receptor (FAS) using HepaRG (AID 2283447); details: actives raise or lower the signal; mRNA level, 48 h
# In short: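 Differentiated human HepaRG cells, pre-cultured 48 h, were exposed in duplicate for 48 h to 8-point half-log concentrations (top 100 uM, 0.5% DMSO) in serum-free induction medium; FAS mRNA measured by qRT-PCR, normalized to ACTB/GAPDH/POLR2A, bidirectional fit versus DMSO.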
# [11] = read-out: UDP glucuronosyltransferase (UGT1A1), UGT1A1 (gene 54658); assay: LTEA_HepaRG_UGT1A1: Life Technologies and Expression Analysis (LTEA) Assay for UDP glucuronosyltransferase (UGT1A1) using HepaRG (AID 2283538); details: actives raise or lower the signal; mRNA level, 48 h
# In short: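 Human liver HepaRG cultures receive test chemical for 48 h, up to 100 uM in 0.5% DMSO, with phenobarbital induction controls. UGT1A1 mRNA is measured by qRT-PCR and normalized to ACTB, GAPDH and POLR2A.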
# [12] = biological target: Cellular tumor antigen p53 (Homo sapiens) (UniProt P04637); assay: TOX21_p53_BLA_p4_ratio: Tox21 HCT-116 p53 Agonism Beta-lactamase Assay, Ratio, Phase 4 (AID 2283601; active = hit-call score of the fitted dose curve at least 0.9, where 1 is the maximum)
# In short: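 HCT116 cells carrying an inducible beta-lactamase reporter were plated at 4000 cells/well, rested 5 h, then exposed to compounds in DMSO (217-fold dilution) for 16 h at 37C. CCF4-AM substrate was loaded 2 h at room temperature; 460/530 nm emission ratio scored gain-of-signal versus DMSO.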
# [13] = read-out: Cytochrome P450 3A4 (Homo sapiens) (UniProt P08684); assay: CLD_CYP3A4_24hr: CellzDirect (CLD) Gene Expression Assay for xenobiotic metabolism (CYP3A4) at 24 hours (AID 2283689; active = hit-call score of the fitted dose curve at least 0.9, where 1 is the maximum)
# In short: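 Primary human hepatocytes from two donors dosed daily with fresh compound for two days, 0.2% DMSO vehicle. CYP3A4 mRNA at 24 hr by qNPA chemiluminescence; gain-of-signal fit versus DMSO, cytotoxicity flagged by morphology.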
# [14] = IUF_NPC3_neuronal_differentiation_120hr: Leibniz Research Institute for Environmental Medicine (IUF) 120-hour Neuronal Differentiation Assay (NPC3) (AID 2284301)
# In short: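 Primary human fetal neural progenitor spheres (GW 16-19, 0.3 mm) plated on poly-D-lysine/laminin in N2 medium, exposed from day 0 for 120 h with half-medium refresh at day 3. TUBB3+ cells as percent of Hoechst nuclei in migration area; DMSO baseline.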
# [15] = read-out: Urokinase-type plasminogen activator receptor (uPAR), PLAUR (gene 5329); assay: BSK_4H_uPAR: BioMAP Diversity Plus: 4H Assay for Urokinase-type plasminogen activator receptor (uPAR) Biomarker Activity (AID 2283030); details: actives raise or lower the signal; primary human endothelial cells (HUVEC)
# In short: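 Endpoint derived via bidirectional curve fitting against DMSO baseline; readout was ELISA detection of uPAR on umbilical vein endothelial cells at 24 h post-treatment, with SRB-stained parallel cultures assessing cytotoxicity.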
# [16] = biological target: human Phosphatase and Tensin Homolog (PTEN), PTEN (gene 5728) (UniProt P60484); assay: NVS_ENZ_hPTEN: NovaScreen (NVS) Enzymatic Assay for human Phosphatase and Tensin Homolog (PTEN) (AID 2283203; active = hit-call score of the fitted dose curve at least 0.9, where 1 is the maximum)
# [17] = read-out: DNA damage-inducible transcript 3 (DDIT3), DDIT3 (gene 1649); assay: LTEA_HepaRG_DDIT3: Life Technologies and Expression Analysis (LTEA) Assay for DNA damage-inducible transcript 3 (DDIT3) using HepaRG (AID 2283488); details: actives raise or lower the signal; mRNA level, 48 h
# In short: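 Changes in DDIT3 transcript, in either direction relative to 0.5% DMSO vehicle, were quantified by TaqMan qRT-PCR after 48 h chemical exposure of HepaRG cells at 8 concentrations, maximum 100 uM.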
smiles,measurement,setting,value
O=C(O)C1C2CCC(O2)C1C(=O)O (configuration not stated),AC50,[1],active: 10.1 µM
same,AC50,[2],active: 17.1 µM
same,outcome,[3],inactive
same,outcome,[4],inactive
O=C1C(Cl)=C(Cl)C(=O)C(Cl)=C1Cl,AC50,[5],active: 24.2 µM
CC[C@H](C)[C@H]1O[C@]2(C=C[C@@H]1C)C[C@@H]1C[C@@H](C/C=C(\C)[C@@H](O[C@H]3C[C@H](OC)[C@@H](O[C@H]4C[C@H](OC)[C@@H](O)[C@H](C)O4)[C@H](C)O3)[C@@H](C)/C=C/C=C3\CO[C@@H]4[C@H](O)C(C)=C[C@@H](C(=O)O1)[C@]34O)O2 (tested in a mixture with another compound),AC50,[6],active: 7.75 µM
same,AC50,[7],active: 12.2 µM
same,AC50,[8],active: 10.9 µM
same,AC50,[9],active: 11.5 µM
same,AC50,[10],active: 7.79 µM
same,AC50,[11],active: 13.7 µM
same,AC50,[12],active: 11.5 µM
same,AC50,[13],active: 20 µM
same,AC50,[14],active: 6.51 µM
CC(C)(C)C(O)(CCc1ccc(Cl)cc1)Cn1cncn1 (configuration not stated),outcome,[15],inactive
same,outcome,[16],inactive
same,AC50,[17],active: 72.1 µM
